Test results published in the supplement of paper PMC10849652.
The list shows a part of the results.

The chains behind the UniProt entries cited, without tags or fusion partners. Where a name states a change or a piece, a line headed by the entry shows the natural chain unless it says otherwise.
UniProt O43148, whole entry, looked up: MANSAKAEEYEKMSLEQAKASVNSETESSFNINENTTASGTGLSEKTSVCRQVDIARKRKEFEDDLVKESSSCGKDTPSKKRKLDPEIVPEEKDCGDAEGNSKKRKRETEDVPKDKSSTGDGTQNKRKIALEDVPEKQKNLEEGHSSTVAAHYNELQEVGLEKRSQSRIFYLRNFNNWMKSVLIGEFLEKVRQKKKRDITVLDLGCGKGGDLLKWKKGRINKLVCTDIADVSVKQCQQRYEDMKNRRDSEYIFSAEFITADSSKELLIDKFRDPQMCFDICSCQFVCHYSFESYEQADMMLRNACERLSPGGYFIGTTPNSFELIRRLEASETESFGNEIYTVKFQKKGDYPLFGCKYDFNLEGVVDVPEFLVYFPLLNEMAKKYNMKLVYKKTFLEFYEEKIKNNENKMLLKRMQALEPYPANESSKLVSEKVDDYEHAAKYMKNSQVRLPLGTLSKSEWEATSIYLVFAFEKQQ
UniProt P05386, whole entry, looked up: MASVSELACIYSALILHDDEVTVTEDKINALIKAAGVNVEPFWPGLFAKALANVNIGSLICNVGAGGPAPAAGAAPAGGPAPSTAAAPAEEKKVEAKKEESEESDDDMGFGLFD
UniProt Q8TA86: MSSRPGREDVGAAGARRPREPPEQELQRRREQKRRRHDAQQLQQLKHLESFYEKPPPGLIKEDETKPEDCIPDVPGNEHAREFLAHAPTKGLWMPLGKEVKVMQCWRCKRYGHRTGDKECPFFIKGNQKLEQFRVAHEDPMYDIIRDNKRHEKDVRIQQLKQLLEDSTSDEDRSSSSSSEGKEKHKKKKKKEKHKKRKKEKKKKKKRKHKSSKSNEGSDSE
UniProt P13489: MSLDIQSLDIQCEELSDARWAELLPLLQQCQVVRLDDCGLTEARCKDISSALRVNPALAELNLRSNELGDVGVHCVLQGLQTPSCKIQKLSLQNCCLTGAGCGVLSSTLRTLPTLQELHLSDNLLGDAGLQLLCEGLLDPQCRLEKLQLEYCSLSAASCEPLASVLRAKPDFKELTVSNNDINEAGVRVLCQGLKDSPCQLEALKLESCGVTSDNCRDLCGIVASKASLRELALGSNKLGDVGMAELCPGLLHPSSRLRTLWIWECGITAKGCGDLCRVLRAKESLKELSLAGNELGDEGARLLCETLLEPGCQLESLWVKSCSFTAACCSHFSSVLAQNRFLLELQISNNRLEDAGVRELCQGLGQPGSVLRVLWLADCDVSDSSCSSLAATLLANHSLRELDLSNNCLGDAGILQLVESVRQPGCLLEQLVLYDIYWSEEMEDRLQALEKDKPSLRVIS
UniProt Q86WX3: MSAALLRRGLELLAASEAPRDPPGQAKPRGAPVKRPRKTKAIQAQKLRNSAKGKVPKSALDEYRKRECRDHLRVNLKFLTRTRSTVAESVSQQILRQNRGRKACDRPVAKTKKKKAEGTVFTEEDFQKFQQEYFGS
UniProt P10301: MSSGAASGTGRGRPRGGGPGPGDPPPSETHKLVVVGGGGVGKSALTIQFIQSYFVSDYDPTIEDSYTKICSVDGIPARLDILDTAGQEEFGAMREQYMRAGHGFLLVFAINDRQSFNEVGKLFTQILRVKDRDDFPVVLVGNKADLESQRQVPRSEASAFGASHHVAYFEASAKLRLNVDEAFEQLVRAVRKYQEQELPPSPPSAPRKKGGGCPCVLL
UniProt Q92901: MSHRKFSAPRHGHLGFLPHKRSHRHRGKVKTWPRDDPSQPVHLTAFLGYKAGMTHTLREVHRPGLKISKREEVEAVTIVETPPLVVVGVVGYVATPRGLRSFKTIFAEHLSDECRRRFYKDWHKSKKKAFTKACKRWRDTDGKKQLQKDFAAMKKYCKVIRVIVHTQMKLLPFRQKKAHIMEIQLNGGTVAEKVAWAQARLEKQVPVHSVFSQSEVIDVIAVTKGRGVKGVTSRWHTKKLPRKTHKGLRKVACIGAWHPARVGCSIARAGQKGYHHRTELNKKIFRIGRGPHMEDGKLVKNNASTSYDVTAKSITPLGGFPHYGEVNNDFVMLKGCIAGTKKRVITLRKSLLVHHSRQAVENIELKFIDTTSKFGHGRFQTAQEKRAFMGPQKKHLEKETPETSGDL
UniProt P10155: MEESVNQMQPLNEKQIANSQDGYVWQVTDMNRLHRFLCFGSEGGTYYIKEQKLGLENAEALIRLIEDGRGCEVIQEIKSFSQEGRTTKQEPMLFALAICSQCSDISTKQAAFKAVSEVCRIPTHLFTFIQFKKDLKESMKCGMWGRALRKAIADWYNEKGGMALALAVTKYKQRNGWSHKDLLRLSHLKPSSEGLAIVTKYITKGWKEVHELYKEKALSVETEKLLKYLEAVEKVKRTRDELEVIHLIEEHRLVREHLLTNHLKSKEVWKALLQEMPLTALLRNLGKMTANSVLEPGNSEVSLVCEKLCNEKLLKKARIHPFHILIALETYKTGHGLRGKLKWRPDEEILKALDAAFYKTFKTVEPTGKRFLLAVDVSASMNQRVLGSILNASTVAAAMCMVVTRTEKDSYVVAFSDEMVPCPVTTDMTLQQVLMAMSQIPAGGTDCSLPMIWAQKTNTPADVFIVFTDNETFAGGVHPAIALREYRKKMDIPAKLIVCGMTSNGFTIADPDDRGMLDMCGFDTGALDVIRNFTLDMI

Tests used:
Assay in all cases: log2 fold change, soluble protein after heating vs DMSO (PISA); higher = thermal stabilisation; K562 cells, 10 uM, 30 min; active = over 0.2 and 3.5 SD of the protein, either way, in both replicates (recomputed)
[1] = compound: CS(=O)(=O)c1ccc(-c2cnc(N)c(C(=O)Nc3ccccc3)n2)cc1
Method in brief: (§1)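 Aliquots of K562 cells (2×10^6 cells/mL) treated with 10 μM compound for 30 min were heated for 3 min over 48°C-58°C. After pooling and extraction in PBS with 0.5% NP-40 at 4°C, soluble protein from a 21,000xg, 90 min spin was quantified by TMTpro 16plex LC-MS/MS with channel sums equalised. Thermal stability is expressed against control samples, from duplicates, as a log2 fold change.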

crizotinib = compound: C[C@@H](Oc1cc(-c2cnn(C3CCNCC3)c2)cnc1N)c1c(Cl)ccc(F)c1Cl [crizotinib]
Method in brief: as §1

[2] = compound: C[C@@H]1COCCN1C2=NC(=NC(=C2)C3(CC3)S(=O)(=O)C)C4=C5C=CNC5=CC=C4
Method in brief: as §1

[3] = compound: C[C@H](C1=CC=C(C=C1)C(=O)NC2=C3C=CNC3=NC=C2)N
Method in brief: as §1

duvelisib = compound: C[C@H](Nc1ncnc2nc[nH]c12)c1cc2cccc(Cl)c2c(=O)n1-c1ccccc1 [duvelisib]
Method in brief: as §1

gandotinib = compound: Cc1cc(Nc2cc(CN3CCOCC3)c3nc(C)c(Cc4ccc(Cl)cc4F)n3n2)n[nH]1 [gandotinib]
Method in brief: as §1

tozasertib = compound: Cc1cc(Nc2cc(N3CCN(C)CC3)nc(Sc3ccc(NC(=O)C4CC4)cc3)n2)n[nH]1 [tozasertib]
Method in brief: as §1

[4] = compound: Cc1cc(SCc2sc(-c3ccc(C(F)(F)F)cc3)nc2C)ccc1OCC(=O)O
Method in brief: as §1

doramapimod = compound: Cc1ccc(-n2nc(C(C)(C)C)cc2NC(=O)Nc2ccc(OCCN3CCOCC3)c3ccccc23)cc1 [doramapimod]
Method in brief: as §1

ispinesib = compound: Cc1ccc(C(=O)N(CCCN)[C@@H](c2nc3cc(Cl)ccc3c(=O)n2Cc2ccccc2)C(C)C)cc1 [ispinesib]
Method in brief: as §1

Measured: log2 fold change

RPL4 (UniProt P36578)
inactive: [1] -0.1 | crizotinib 0.037 | [2] -1.24 | [3] 0.607 | duvelisib -0.303 | gandotinib 0.437 | tozasertib 0.035 | [4] 0.048 | doramapimod 0.372 | ispinesib -0.224

RPL34 (UniProt P49207)
inactive: [1] -0.281 | crizotinib 0.098 | [2] -1.24 | [3] 0.647 | duvelisib -0.322 | gandotinib 0.503 | tozasertib 0.054 | [4] 0.107 | doramapimod 0.318 | ispinesib -0.276

RNMT isoform 2 (UniProt O43148)
inactive: [1] -0.048 | crizotinib 0.038 | [2] -0.04 | [3] 0.138 | duvelisib -0.048 | gandotinib 0.051 | tozasertib -0.048 | [4] -0.019 | doramapimod 0.027 | ispinesib -0.041

RPL9 (UniProt P32969)
inactive: [1] -0.102 | crizotinib -0.004 | [2] -0.942 | [3] 0.561 | duvelisib -0.315 | gandotinib 0.283 | tozasertib 0.039 | [4] 0.059 | doramapimod 0.225 | ispinesib -0.224

RPS27 (UniProt P42677)
inactive: [1] -0.009 | crizotinib -0.015 | [2] -0.002 | [3] 0.248 | duvelisib 0.057 | gandotinib 0.067 | tozasertib 0 | [4] 0.071 | doramapimod 0.074 | ispinesib -0.111

RPL18 (UniProt Q07020)
inactive: [1] -0.043 | crizotinib 0.071 | [2] -1.02 | [3] 0.658 | duvelisib -0.435 | gandotinib 0.496 | tozasertib 0.061 | [4] -0.01 | doramapimod 0.387 | ispinesib -0.352

RPLP1 (UniProt P05386)
inactive: [1] -0.187 | crizotinib 0.082 | [2] -0.6 | [3] 0.504 | duvelisib -0.114 | gandotinib 0.351 | tozasertib 0.149 | [4] -0.057 | doramapimod 0.226 | ispinesib -0.106

RPL11 (UniProt P62913)
inactive: [1] -0.021 | crizotinib 0.06 | [2] -1.18 | [3] 0.572 | duvelisib -0.269 | gandotinib 0.528 | tozasertib 0.072 | [4] -0.001 | doramapimod 0.286 | ispinesib -0.2

RPLP0 (UniProt P05388)
inactive: [1] -0.163 | crizotinib 0.082 | [2] -1.04 | [3] 0.581 | duvelisib -0.293 | gandotinib 0.395 | tozasertib 0.019 | [4] 0.048 | doramapimod 0.382 | ispinesib -0.257

RP9 (UniProt Q8TA86)
inactive: [1] 0.074 | crizotinib 0.084 | [2] -0.216 | [3] 0.262 | duvelisib -0.064 | gandotinib 0.302 | tozasertib 0.028 | [4] -0.017 | doramapimod 0.076 | ispinesib -0.094

RNH1 (UniProt P13489)
inactive: [1] -0.004 | crizotinib -0.031 | [2] 0.091 | [3] -0.11 | duvelisib 0.021 | gandotinib -0.089 | tozasertib 0.027 | [4] 0.012 | doramapimod -0.019 | ispinesib 0.054

RPL13 (UniProt P26373)
inactive: [1] -0.003 | crizotinib 0.024 | [2] -1.05 | [3] 0.716 | duvelisib -0.326 | gandotinib 0.599 | tozasertib 0.047 | [4] 0.017 | doramapimod 0.345 | ispinesib -0.349

RPL21 (UniProt P46778)
inactive: [1] -0.036 | crizotinib 0.055 | [2] -1.06 | [3] 0.717 | duvelisib -0.267 | gandotinib 0.448 | tozasertib 0.046 | [4] 0 | doramapimod 0.427 | ispinesib -0.257

RPL7A (UniProt P62424)
inactive: [1] -0.086 | crizotinib 0.058 | [2] -1.25 | [3] 0.531 | duvelisib -0.362 | gandotinib 0.417 | tozasertib 0.048 | [4] 0.038 | doramapimod 0.318 | ispinesib -0.204

RPS19BP1 (UniProt Q86WX3)
inactive: [1] -0.018 | crizotinib -0.04 | [2] -0.407 | [3] 0.36 | duvelisib -0.058 | gandotinib 0.232 | tozasertib -0.029 | [4] 0 | doramapimod 0.066 | ispinesib -0.047

RRAS (UniProt P10301)
inactive: [1] 0.024 | crizotinib 0.107 | [2] 0.012 | [3] -0.072 | duvelisib 0.034 | gandotinib 0.004 | tozasertib -0.006 | [4] -0.012 | doramapimod -0.051 | ispinesib 0.006

RPS7 (UniProt P62081)
inactive: [1] -0.114 | crizotinib 0.067 | [2] -0.542 | [3] 0.247 | duvelisib -0.133 | gandotinib 0.13 | tozasertib 0.029 | [4] 0.029 | doramapimod 0.215 | ispinesib -0.149

RPL3L (UniProt Q92901)
inactive: [1] -0.083 | crizotinib 0.205 | [2] -1.41 | [3] 0.667 | duvelisib -0.335 | gandotinib 0.383 | tozasertib 0.116 | [4] 0.116 | doramapimod 0.393 | ispinesib -0.327

9 consecutive records already listed:
RPLP1 (UniProt P05386)
inactive: [1] -0.187 | crizotinib 0.082 | [2] -0.6 | [3] 0.504 | duvelisib -0.114 | gandotinib 0.351 | tozasertib 0.149 | [4] -0.057 | doramapimod 0.226 | ispinesib -0.106

RPL11 (UniProt P62913)
inactive: [1] -0.021 | crizotinib 0.06 | [2] -1.18 | [3] 0.572 | duvelisib -0.269 | gandotinib 0.528 | tozasertib 0.072 | [4] -0.001 | doramapimod 0.286 | ispinesib -0.2

RPLP0 (UniProt P05388)
inactive: [1] -0.163 | crizotinib 0.082 | [2] -1.04 | [3] 0.581 | duvelisib -0.293 | gandotinib 0.395 | tozasertib 0.019 | [4] 0.048 | doramapimod 0.382 | ispinesib -0.257

RP9 (UniProt Q8TA86)
inactive: [1] 0.074 | crizotinib 0.084 | [2] -0.216 | [3] 0.262 | duvelisib -0.064 | gandotinib 0.302 | tozasertib 0.028 | [4] -0.017 | doramapimod 0.076 | ispinesib -0.094

RNH1 (UniProt P13489)
inactive: [1] -0.004 | crizotinib -0.031 | [2] 0.091 | [3] -0.11 | duvelisib 0.021 | gandotinib -0.089 | tozasertib 0.027 | [4] 0.012 | doramapimod -0.019 | ispinesib 0.054

RPL13 (UniProt P26373)
inactive: [1] -0.003 | crizotinib 0.024 | [2] -1.05 | [3] 0.716 | duvelisib -0.326 | gandotinib 0.599 | tozasertib 0.047 | [4] 0.017 | doramapimod 0.345 | ispinesib -0.349

RPL21 (UniProt P46778)
inactive: [1] -0.036 | crizotinib 0.055 | [2] -1.06 | [3] 0.717 | duvelisib -0.267 | gandotinib 0.448 | tozasertib 0.046 | [4] 0 | doramapimod 0.427 | ispinesib -0.257

RPL7A (UniProt P62424)
inactive: [1] -0.086 | crizotinib 0.058 | [2] -1.25 | [3] 0.531 | duvelisib -0.362 | gandotinib 0.417 | tozasertib 0.048 | [4] 0.038 | doramapimod 0.318 | ispinesib -0.204

RPS19BP1 (UniProt Q86WX3)
inactive: [1] -0.018 | crizotinib -0.04 | [2] -0.407 | [3] 0.36 | duvelisib -0.058 | gandotinib 0.232 | tozasertib -0.029 | [4] 0 | doramapimod 0.066 | ispinesib -0.047

Additional records:

RPL19 (UniProt P84098)
inactive: [1] -0.025 | crizotinib 0.089 | [2] -0.72 | [3] 0.435 | duvelisib -0.284 | gandotinib 0.372 | tozasertib 0.067 | [4] -0.041 | doramapimod 0.267 | ispinesib -0.23

RPL23A (UniProt P62750)
inactive: [1] -0.102 | crizotinib 0.015 | [2] -0.657 | [3] 0.338 | duvelisib -0.236 | gandotinib 0.304 | tozasertib 0.013 | [4] 0.013 | doramapimod 0.189 | ispinesib -0.143

RPL3 (UniProt P39023)
inactive: [1] -0.044 | crizotinib 0.066 | [2] -1.2 | [3] 0.665 | duvelisib -0.318 | gandotinib 0.393 | tozasertib 0.062 | [4] 0.097 | doramapimod 0.371 | ispinesib -0.27

RPL12 (UniProt P30050)
inactive: [1] -0.158 | crizotinib 0.156 | [2] -1.01 | [3] 0.537 | duvelisib -0.312 | gandotinib 0.408 | tozasertib 0.022 | [4] 0.053 | doramapimod 0.427 | ispinesib -0.279

RPL30 (UniProt P62888)
inactive: [1] -0.217 | crizotinib 0.064 | [2] -1.11 | [3] 0.581 | duvelisib -0.236 | gandotinib 0.428 | tozasertib 0.011 | [4] 0.142 | doramapimod 0.324 | ispinesib -0.262

RPL14 (UniProt P50914)
inactive: [1] -0.063 | crizotinib 0.05 | [2] -1.18 | [3] 0.699 | duvelisib -0.287 | gandotinib 0.598 | tozasertib 0.038 | [4] 0.117 | doramapimod 0.33 | ispinesib -0.203

RPS15A (UniProt P62244)
inactive: [1] -0.093 | crizotinib 0.046 | [2] -0.584 | [3] 0.359 | duvelisib -0.225 | gandotinib 0.356 | tozasertib 0.036 | [4] 0.037 | doramapimod 0.237 | ispinesib -0.192

RPL35A (UniProt P18077)
inactive: [1] -0.045 | crizotinib 0.155 | [2] -1.21 | [3] 0.689 | duvelisib -0.358 | gandotinib 0.571 | tozasertib 0.073 | [4] 0.035 | doramapimod 0.422 | ispinesib -0.296

RPL10 (UniProt P27635)
inactive: [1] -0.028 | crizotinib 0.057 | [2] -0.684 | [3] 0.434 | duvelisib -0.276 | gandotinib 0.296 | tozasertib 0.103 | [4] 0.059 | doramapimod 0.337 | ispinesib -0.166

RO60 (UniProt P10155)
inactive: [1] 0.042 | crizotinib 0.034 | [2] 0.034 | [3] -0.048 | duvelisib 0.011 | gandotinib 0.029 | tozasertib -0.003 | [4] -0.052 | doramapimod -0.003 | ispinesib 0.028

RPS28 (UniProt P62857)
inactive: [1] -0.062 | crizotinib 0.014 | [2] -0.103 | [3] 0.099 | duvelisib -0.12 | gandotinib 0.055 | tozasertib -0.043 | [4] -0.062 | doramapimod 0.041 | ispinesib -0.068

RPL6 (UniProt Q02878)
inactive: [1] -0.053 | crizotinib 0.077 | [2] -0.823 | [3] 0.698 | duvelisib -0.358 | gandotinib 0.45 | tozasertib 0.06 | [4] 0.066 | doramapimod 0.411 | ispinesib -0.328
